Results published in PubChem BioAssay AID2685 (National Center for Advancing Translational Sciences (NCATS), 2010).
Among all 320,000 compounds or so, about 2,100 (0.66%) were called active. Inconclusive means that the source gave no clear call. Such entries were picked first, then a sample of the others. The call rests on the fitted dose curve; in most records, active means well fitted inhibition curve with a large enough effect in the signal ratio, with a control signal flat (not every such curve was filed as active); inconclusive means small, poorly fitted or top-dose-only effect, or effect the other way, or a change in a side signal; inactive means flat fitted curve, though single readings scatter; the % refers to the signal ratio. Potencies beside an inconclusive call are fits to weak or partial responses and may not hold up.

Experiment: qHTS Assay for Lipid Storage Modulators in Drosophila S3 Cells
Conditions: BODIPY lipid droplet fluorescence, 18-24 h, cells fed with added oleic acid; lipid storage change, negative = inhibition: at 46.1 µM (top of the series) unless noted
How it was run: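 Drosophila S3 cells got compounds at several concentrations plus oleic acid (400 uM solution). Laser-scanning cytometry with 488 nm excitation read lipid droplets at 500-530 nm and cells at 575-640 nm. Percent activity was relative to 20 uM Triacsin C.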
On the % scale 0 is the no-effect control and ±100 the full control effect; potency means the concentration at half of the fitted maximal effect.

Lipid storage change, negative = inhibition, inactive:
O=C(NNC1CC(=O)N(c2ccc(Cl)cc2)C1=O)c1ccccn1 (configuration not stated)

Lipid storage change, negative = inhibition, inconclusive:
C#CCNC(=O)c1cc2sccc2n1C -3.31%
CN(C(=O)COC(=O)COc1ccccc1F)C1CCS(=O)(=O)C1 (configuration not stated) 18.5%
CN(C)S(=O)(=O)c1ccc(C(=O)N2CCN(S(=O)(=O)c3cccs3)CC2)cc1 52%
COc1cccc(COc2ccc(N(C)S(=O)(=O)c3ccccc3)cc2)c1 111%
C[C@H]1C(=O)N(C)CCN1C(=O)c1cccc(OC2CCN(CC(C)(C)C)CC2)c1 0.186%
O=C(Oc1ccc(-n2cnnn2)cc1)c1ccccc1 -12.9%
CCOc1ccc(S(=O)(=O)c2c(C(=O)c3ccccc3)cnc3cc4c(cc23)OCCO4)cc1 -5.24%
CCCCCn1c(=S)[nH]c2ncccc2c1=O 4.56%
O=C(CSc1nc2ccccc2nc1N1CCCC1)Nc1ccc(Cl)cc1 -49.8%
O=C(O)c1ccc(-n2nncc2-c2ccco2)cc1 110%
CCCOc1ccc(C2NC(=S)NC(C)=C2C(=O)c2ccccc2)cc1OC (configuration not stated) -18.3%
CCOC(=O)c1cn(Cc2ccccc2)nn1 8.71%
COc1ccc([C@H]2CC(=O)C=C(c3ccc4c(c3)sc3ccccc34)C2)cc1 7.05%
COc1ccc(NC(=O)c2onc(C)c2Cl)cc1 -25.8%
COc1ccc(C2SCC(=O)N2c2nc3ccccc3s2)cc1 (configuration not stated) 16.5%
CC1CCN(CCOc2ccc(OCc3ccccc3)cc2)CC1 -2.46%
O=S(=O)(NNc1nccc(C(F)(F)F)n1)c1cccc(Cl)c1Cl -18.5%
COc1ccccc1/C=C/C(=O)Nc1cccc(C(C)=O)c1 -35.7% [at 0.369 µM]
CC(C)C[C@H](NC(=O)N1CCn2c1nc1ccccc12)C(=O)N[C@@H](Cc1ccccc1)C(=O)O 175%
O=C(CN1C(=O)COc2ccccc21)NCC1CCCO1 (configuration not stated) 79.7%
O=[N+]([O-])c1ccc(-c2nc(NCC3CCCO3)c3ccccc3n2)cc1 (configuration not stated) 6.47%
Cc1cc(OCCCCCNCCO)cc(C)c1Cl 31.4%
CCSc1nnc(NC(=O)c2ccc(S(=O)(=O)N(C)C)cc2)s1 40.2%
CC(NC1c2ccccc2-c2ccccc21)c1ccccc1 (configuration not stated) 170%
CCO[C@H]1OC(C(=O)NC2CC2)=C[C@@H](C2CCCCC2)[C@@H]1CCCO 10.1%
O=C(CCc1nnc(CCCCc2ccccc2)o1)N1CCCCC1CCO (configuration not stated) 24.3%
O=C(NCc1ccccc1Cl)C(=O)NCC1OCCCN1S(=O)(=O)c1cccs1 (configuration not stated) 25.4%
O=C(CSc1ccccc1C(=O)O)NCc1ccccc1 -23.5%
CSc1nccc(Nc2ccccc2)c1C#N 15%
CC(=O)c1ccc(NC(=O)CSc2nnc(NC(=O)CN3CCOCC3)s2)cc1 22.6%
N=c1c(C(=O)NC2CCCC2)cc2c(=O)n3ccccc3nc2n1CC1CCCO1 (configuration not stated) 71.1%
CC(=O)Nc1ccc(NC(=O)C2CCCN2C(=O)Nc2cccc(F)c2)cc1 (configuration not stated) 32.4%
COc1ccc(N2C(=O)CSC2c2ccncc2)cc1 (configuration not stated) 42.9%
COc1ccc(-c2cc3nc(-c4ccccc4)cc(N4CCC5(CC4)OCCO5)n3n2)cc1 -16.8%
COc1ccc(-n2c(C)nnc2SCC(=O)N2CCOCC2)cc1 3.56%
CCn1ccnc1CNCc1cn(-c2cc(C)ccc2C)nc1-c1ccccc1 0.0158%
CCOc1ccc(C2CC(c3cccc(C)c3)n3ncnc3N2)cc1 (configuration not stated) 3.57%
COc1ccc(-c2nc(CS(=O)CC(=O)NC3CCCCC3)c(C)o2)cc1OC (configuration not stated) -49.5%
COc1ccc(S(=O)(=O)N2CCN(C(=O)c3cccs3)CC2)cc1OC -1.59%
Clc1ccc(-c2csc(-c3cccnc3)n2)s1 40.6%
O=C1CCC/C(=N/NC(=O)C2CCN(S(=O)(=O)c3cccs3)CC2)C1 -3.87%
CN(C(=O)COC(=O)c1cc(S(=O)(=O)N2CCOCC2)ccc1F)C1CCS(=O)(=O)C1 (configuration not stated) -18.4%
O=S(=O)(c1ccccc1)N1CCN(C(=S)NCCCN2CCOCC2)CC1 -29.5% [at 9.22 µM]
CNC(=O)c1ccsc1NC(=O)c1coc2ccccc2c1=O 0.979%
COc1ccc(CC(=O)Oc2ccc(Cl)cc2Br)cc1S(=O)(=O)N1CCOCC1
COC(=O)c1sccc1NC(=S)NCc1ccc(Cl)cc1 43.1%
O=c1[nH]c2ccc(S(=O)(=O)N3CCCCC3)cc2[nH]1 -71.4%
CCN1C(=O)C(=O)N(CC(=O)NC(C)CCc2ccccc2)C1=O (configuration not stated) -44.6%
NS(=O)(=O)c1cccc(NC(=O)CSc2nc3ccccc3c(=O)n2CC2CCCO2)c1 (configuration not stated)
CCOc1ccc(CCNC(=O)CS(=O)Cc2nc(-c3ccc(C)cc3)oc2C)cc1OCC (configuration not stated) -3.71%
O=C(CSc1nnc(-c2cccnc2)n1C1CCCCC1)NC1CCCCC1 7.28%
COCCCNC(=S)N1CCC(NC(=O)c2ccco2)CC1 -26.7%

Retrieved by compound from the entries so far (three):
Lipid storage change, negative = inhibition, inconclusive:
CN(C(=O)COC(=O)c1cc(S(=O)(=O)N2CCOCC2)ccc1F)C1CCS(=O)(=O)C1 (configuration not stated) -18.4%
COc1ccccc1/C=C/C(=O)Nc1cccc(C(C)=O)c1 -35.7% [at 0.369 µM]
O=C(CN1C(=O)COc2ccccc21)NCC1CCCO1 (configuration not stated) 79.7%

Next part:

Potency, inconclusive:
COCCN1C(=O)N(c2ccccc2)C(=O)C1CC(=O)Nc1cc(OC)cc(OC)c1 (configuration not stated) 29.1 µM [activator, single point]
O=C(Nc1ccc(Cl)cc1)OCc1cn(-c2ccc(Cl)cc2)nn1 29.1 µM [falling, single point]
CCOC(=O)C1C(=O)C=C(N2CCOCC2)CC1c1cccc(OC)c1 (configuration not stated) 14.6 µM [falling, partial curve, poor fit]
CC1CN(C(=O)C(C)Sc2nnnn2C)CC(C)O1 (configuration not stated) 2.06 µM [falling, partial curve]
Cc1ccc(S(=O)(=O)Nc2ccccc2C(=O)OC(C)C(=O)Nc2ccc3ccccc3c2)cc1[N+](=O)[O-] (configuration not stated) 2.91 µM [activator, full curve, poor fit]
O=C(OCc1cc2ccccc2[nH]c1=O)C1CCCO1 (configuration not stated) 0.517 µM [falling, full curve]
Cc1ccccc1-n1c(=O)/c(=C\c2ccco2)s/c1=C(/C#N)C(=O)Nc1ccccc1 23.1 µM [activator, partial curve]
COc1cc(C(=O)Nc2ccc(OCC(=O)O)cc2)cc(OC)c1OC 23.1 µM [activator, single point]
Cc1cc(C)c2c(c1)cc(C)c1nnc(SCC(=O)Nc3ccc(S(=O)(=O)N4CCCCC4)cc3)n12 20.6 µM [falling, single point]
COc1ccccc1N1CCN(C2CCCN(C(=O)CN3CCCC3=O)C2)CC1 (configuration not stated) 20.6 µM [activator, single point]
O=C(O)CSc1c(-c2ccccc2)[nH]c2ccccc12 3.66 µM [activator, full curve]
COc1cc(CN(C)CC2CCCN(CCc3ccccc3F)C2)cc(Cl)c1OC (configuration not stated) 29.1 µM [activator, single point]
CN(C)c1ncc(S(=O)(=O)c2ccccc2)c(-c2ccccc2Cl)n1 5.17 µM [falling, single point]
Cc1ccc(Nc2nc(Cl)nc(NC(C)(C)C)n2)cc1 29.1 µM [activator, single point]
COCCn1c(SCc2cc(C(C)=O)ccc2OC)nc2cc(Cl)ccc2c1=O 20.6 µM [activator, single point]
CCN(C(=O)COC(=O)c1cc([N+](=O)[O-])ccc1N1CCOCC1)c1ccccc1 3.66 µM [falling, single point]
COc1cc(C(=O)NCc2nnc(SCC(=O)c3ccccc3)o2)cc(OC)c1OC 29.1 µM [activator, single point]
CN(CC(=O)N1CCOCC1)S(=O)(=O)c1ccc2ccccc2c1 14.6 µM [falling, single point]
Cc1ccc(C(OCC(O)CN2CCCCC2)c2ccccc2)cc1 (configuration not stated) 6.51 µM [activator, single point]
Cc1ccc2c(c1C)OC(=O)CC2c1ccccc1 (configuration not stated) 9.2 µM [activator, partial curve]
Cc1[nH]c2ccccc2c1/C=N\NC(=O)Cn1nnc(-c2ccccc2)n1 1.3 µM [activator, full curve]
COc1cc(C(C)=O)ccc1OCC(=O)Nc1cc(Cl)ccc1-n1cncn1 1.46 µM [falling, full curve, poor fit]
O=C(c1ccc(Cl)c(Cl)c1)N1CCC(=O)N(C(COCc2ccccc2)Cc2ccccc2)CC1 (configuration not stated) 14.6 µM [activator, partial curve]
Cc1ccc(SCc2ccc(C(=O)Nc3nccs3)o2)cc1 0.251 µM [activator, full curve, poor fit]

3 compounds already listed, arranged by number of heavy atoms, low to high.
Potency, inconclusive:
Cc1ccc2c(c1C)OC(=O)CC2c1ccccc1 (configuration not stated) 9.2 µM [activator, partial curve]
Cc1ccc(Nc2nc(Cl)nc(NC(C)(C)C)n2)cc1 29.1 µM [activator, single point]
O=C(Nc1ccc(Cl)cc1)OCc1cn(-c2ccc(Cl)cc2)nn1 29.1 µM [falling, single point]
